Assay results as given in paper PMC7658359.
Results are given in words; binding and its absence hold for the method and conditions named. Some binding calls cover weakened binding; strength is not graded here.

By UniProt entry, the sequences of proteins in these tests, tags left out. Where a name states a change or a piece, a line headed by the entry shows the natural chain unless it says otherwise.
UniProt Q9LQQ4: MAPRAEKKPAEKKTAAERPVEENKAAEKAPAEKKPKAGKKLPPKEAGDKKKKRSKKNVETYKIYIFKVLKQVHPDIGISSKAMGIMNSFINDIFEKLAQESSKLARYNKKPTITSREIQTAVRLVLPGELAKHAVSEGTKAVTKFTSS
UniProt Q9C944: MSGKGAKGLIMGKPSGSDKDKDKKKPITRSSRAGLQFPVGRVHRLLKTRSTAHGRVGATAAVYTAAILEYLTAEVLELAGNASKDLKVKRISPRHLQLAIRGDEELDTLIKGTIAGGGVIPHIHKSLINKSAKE

Molecular target: Arabidopsis histone H2B (HTB1) (Arabidopsis thaliana) (UniProt Q9LQQ4)
Assay: SEC; co-purification of the co-expressed H2A.Z-H2B dimer from bacteria: SP column, Heparin column, then size exclusion in 20 mM Tris-HCl pH 8.0, 1 M NaCl

binding: binds
Substance: Arabidopsis histone variant H2A.Z (HTA9) (from UniProt Q9C944 1-134)
